Paper PMC3402386
No constants are given. Whether binding was seen depends on the method and setting. In cells and extracts the contact can be indirect. Some binding calls cover weakened binding; strength is not graded here.

The chains behind the UniProt entries cited, without tags or fusion partners. Residues count along the entry.
UniProt P15116, residues 160-906: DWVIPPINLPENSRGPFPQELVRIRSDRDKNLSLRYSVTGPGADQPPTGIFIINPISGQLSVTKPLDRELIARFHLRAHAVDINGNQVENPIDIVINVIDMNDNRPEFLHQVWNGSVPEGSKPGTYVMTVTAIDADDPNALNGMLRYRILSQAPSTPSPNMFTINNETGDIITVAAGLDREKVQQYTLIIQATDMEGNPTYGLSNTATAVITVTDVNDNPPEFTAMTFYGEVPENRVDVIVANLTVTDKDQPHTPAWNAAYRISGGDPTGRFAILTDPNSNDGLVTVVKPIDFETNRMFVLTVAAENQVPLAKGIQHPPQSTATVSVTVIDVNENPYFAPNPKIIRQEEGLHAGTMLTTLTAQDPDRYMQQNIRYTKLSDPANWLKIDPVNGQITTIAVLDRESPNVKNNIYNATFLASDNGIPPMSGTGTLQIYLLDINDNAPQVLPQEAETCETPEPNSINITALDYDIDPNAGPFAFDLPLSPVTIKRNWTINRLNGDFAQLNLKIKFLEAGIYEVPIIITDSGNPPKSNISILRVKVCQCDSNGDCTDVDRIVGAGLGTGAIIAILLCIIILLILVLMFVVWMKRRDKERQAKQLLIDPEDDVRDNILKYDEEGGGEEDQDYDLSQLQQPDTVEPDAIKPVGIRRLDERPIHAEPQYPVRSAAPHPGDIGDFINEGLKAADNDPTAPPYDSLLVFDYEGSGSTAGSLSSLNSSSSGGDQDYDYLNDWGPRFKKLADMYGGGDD
UniProt Q02248: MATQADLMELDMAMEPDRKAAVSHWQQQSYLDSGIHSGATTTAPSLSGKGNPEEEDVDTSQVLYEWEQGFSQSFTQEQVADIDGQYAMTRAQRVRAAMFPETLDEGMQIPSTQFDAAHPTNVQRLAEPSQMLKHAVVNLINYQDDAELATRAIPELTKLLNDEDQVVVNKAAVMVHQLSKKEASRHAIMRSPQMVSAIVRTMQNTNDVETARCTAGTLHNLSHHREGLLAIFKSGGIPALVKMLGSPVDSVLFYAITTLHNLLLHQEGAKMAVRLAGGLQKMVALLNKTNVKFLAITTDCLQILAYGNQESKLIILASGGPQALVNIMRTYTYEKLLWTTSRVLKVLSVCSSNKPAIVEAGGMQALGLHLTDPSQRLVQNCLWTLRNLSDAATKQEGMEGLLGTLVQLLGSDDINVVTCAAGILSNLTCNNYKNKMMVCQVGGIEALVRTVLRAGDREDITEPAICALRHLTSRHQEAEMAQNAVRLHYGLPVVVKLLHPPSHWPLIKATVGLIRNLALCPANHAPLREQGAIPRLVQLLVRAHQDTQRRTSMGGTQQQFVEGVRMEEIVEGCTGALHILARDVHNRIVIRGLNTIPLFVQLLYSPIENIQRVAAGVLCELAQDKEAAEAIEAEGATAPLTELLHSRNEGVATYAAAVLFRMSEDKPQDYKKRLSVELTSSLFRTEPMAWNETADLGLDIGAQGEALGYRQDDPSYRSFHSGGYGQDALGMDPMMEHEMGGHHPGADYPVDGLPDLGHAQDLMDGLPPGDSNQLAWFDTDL

Biological target: N-cadherin (mouse (endogenous in hippocampus)) (UniProt P15116)
Assay: co-IP; N-cadherin immunoprecipitated with a specific monoclonal antibody from hippocampal homogenates of adult WT and PTP1B KO mice; mild lysis buffer (20 mM Tris.HCl pH 7.4, 150 mM NaCl, 1% NP40, protease and phosphatase inhibitors), overnight at 4°C, protein A agarose; blots probed for ß-catenin or GluR1 and re-probed for N-cadherin; five animals

binding: binds
Substance: ß-catenin (from UniProt Q02248 1-781)
